Data as given in PubChem BioAssay AID1159578 (Peter MacCallum Cancer Centre, 2015).
In all, the deposit lists about 18,000 reagents; shown is a random part of them. Over the whole deposit, about 1,030 (5.7%) got an active call. 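Inactive calls also include pools with fewer than 3300 nuclei, whose migration was not assessed.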 Raw values are not corrected between plates. Not all columns of the deposit are shown.

- Assay: 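siRNA pools altering how lymphatic endothelial cells close a scratch wound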 (primary screen)
- Cells: human lymphatic endothelial cells
- Reagent: siRNA pool against human genes, 40 nM
- Duration: 48 h after transfection
- Detection: 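Cells stained with dye and imaged after a scratch; covered wound area and nuclei counted, duplicates averaged, migration set against mock wells and turned into a robust z-score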
- Direction: migration robust z-score: higher = faster migration into the scratch; nuclei per well: higher = more cells in the well
- Call rule: 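Migration changed when robust z exceeds 2 or falls below -2 and mean nuclei number is at least 3300; otherwise not called changed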
- Meaning of the calls: active = migration changed; inactive = no migration change, or too few cells

SEC11A | migration robust z-score: 1.14; migration class with cell-count check: migration z between -2 and 2; enough cells; nuclei per well, duplicate mean: 5755; activity call: inactive
CYP2A7 | migration robust z-score: -0.57; migration class with cell-count check: migration z between -2 and 2; enough cells; nuclei per well, duplicate mean: 6096; activity call: inactive
CITED2 | migration robust z-score: -0.18; migration class with cell-count check: migration z between -2 and 2; enough cells; nuclei per well, duplicate mean: 4878; activity call: inactive
LRRN3 | migration robust z-score: -0.08; migration class with cell-count check: migration z between -2 and 2; enough cells; nuclei per well, duplicate mean: 5799; activity call: inactive
TMEM229B | migration robust z-score: 1.08; migration class with cell-count check: migration z between -2 and 2; enough cells; nuclei per well, duplicate mean: 6577; activity call: inactive

As entered above.
Under “migration class with cell-count check”, LRRN3 reads migration z between -2 and 2; enough cells
SEC11A, migration class with cell-count check = migration z between -2 and 2; enough cells

More entries follow:
TMEM52B | migration robust z-score: 1.76; migration class with cell-count check: migration z between -2 and 2; enough cells; nuclei per well, duplicate mean: 5726; activity call: inactive
OR10H4 | migration robust z-score: -3.15; migration class with cell-count check: migration z below -2; enough cells; nuclei per well, duplicate mean: 5665; activity call: active
NKX2-8 | migration robust z-score: -1.77; migration class with cell-count check: migration z between -2 and 2; enough cells; nuclei per well, duplicate mean: 5352; activity call: inactive
GMPS | migration robust z-score: 0.75; migration class with cell-count check: migration z between -2 and 2; enough cells; nuclei per well, duplicate mean: 5359; activity call: inactive
H2AB3 | migration robust z-score: 1.28; migration class with cell-count check: migration z between -2 and 2; enough cells; nuclei per well, duplicate mean: 5108; activity call: inactive
ARSK | migration robust z-score: -0.78; migration class with cell-count check: migration z between -2 and 2; enough cells; nuclei per well, duplicate mean: 4901; activity call: inactive
MSRB3 | migration robust z-score: 0.8; migration class with cell-count check: migration z between -2 and 2; enough cells; nuclei per well, duplicate mean: 5717; activity call: inactive
